Single values of this set are uncertain.
B1: Rpb7; numbered along this chain (parent)
chain: MFFIKDLSLNITLHPSFFGPRMKQYLKTKLLEEVEGSCTGKFGYILCVLDYDNIDIQRGRILPTDGSAEFNVKYRAVVFKPFKGEVVDGTVVSCSQHGFEVQVGPMKVFVTKHLMPQDLTFNAGSNPPSYQSSEDVITIKSRIRVKIEGCISQVSSIHAIGSIKEDYLGAI

Experiments:
[1] = variants of: B1; experiment: log2 fold change of mutant abundance, UV-irradiated vs unirradiated; higher = more UV resistant (enriched after UV); details: with Saccharomyces cerevisiae rad7Δ rad26Δ; UV dose (J/m2): 10; genetic background: rad7Δ rad26Δ rpb7Δ + plasmid RPB7 library; outgrowth: 10 cell divisions
[2] = variants of: B1; experiment: NOISeq theta enrichment statistic, UV-irradiated vs unirradiated (dimensionless); higher = more UV resistant (enriched after UV); details: with Saccharomyces cerevisiae rad7Δ rad26Δ; UV dose (J/m2): 10; genetic background: rad7Δ rad26Δ rpb7Δ + plasmid RPB7 library; outgrowth: 10 cell divisions

Variant | log2 fold change of mutant abundance [1] | NOISeq theta enrichment statistic [2]
MFFIKDLSLNITLHPSFFGPRMKQYLKTKLLEEVEGSCTGKFGYILCVLDYDNIDIQRGRILPTDGSAEFNVKYRAVVFKPFKGEVVDGTVVSCSQHGFEVQVGPMKVFVTKHLMPQDLTFNAGSNPPSYQSSEDVITIKSRIRVKIEGCISQVSAIHAIGSIKEDYLGAI [S156A] | 0.135 | 0.206
MFFIKDLSLNITLHPSFFGPRMKQYLKTKLLEEVEGSCTGKFGYILCVLDYDNIDIQRGRILPTDGSAEFNVKYRAVVFKPFKGEVVDGTVVSCSQHGFEVQVGPMKVFVTKHLMPQDLTFNAGSNPPSYQSSEDVITIKSRIRVKIEGCISQVSTIHAIGSIKEDYLGAI [S156T] | -0.0835 | -0.32
MFFIKDLSLNITLHPSFFGPRMKQYLKTKLLEEVEGSCTGKFGYILCVLDYDNIDIQRGRILPTDGSAEFNVKYRAVVFKPFKGEVVDGTVVSCSQHGFEVQVGPMKVFVTKHLMPQDLTFNAGSNPPSYQSSEDVITIKSRIRVKIEGCISQVSNIHAIGSIKEDYLGAI [S156N] | -0.825 | -0.346
MFFIKDLSLNITLHPSFFGPRMKQYLKTKLLEEVEGSCTGKFGYILCVLDYDNIDIQRGRILPTDGSAEFNVKYRAVVFKPFKGEVVDGTVVSCSQHGFEVQVGPMKVFVTKHLMPQDLTFNAGSNPPSYQSSEDVITIKSRIRVKIEGCISQVSLIHAIGSIKEDYLGAI [S156L] | -0.296 | -0.156
MFFIKDLSLNITLHPSFFGPRMKQYLKTKLLEEVEGSCTGKFGYILCVLDYDNIDIQRGRILPTDGSAEFNVKYRAVVFKPFKGEVVDGTVVSCSQHGFEVQVGPMKVFVTKHLMPQDLTFNAGSNPPSYQSSEDVITIKSRIRVKIEGCISQVSFIHAIGSIKEDYLGAI [S156F] | -0.47 | -0.737
MFFIKDLSLNITLHPSFFGPRMKQYLKTKLLEEVEGSCTGKFGYILCVLDYDNIDIQRGRILPTDGSAEFNVKYRAVVFKPFKGEVVDGTVVSCSQHGFEVQVGPMKVFVTKHLMPQDLTFNAGSNPPSYQSSEDVITIKSRIRVKIEGCISQVSPIHAIGSIKEDYLGAI [S156P] | -0.477 | -0.719
MFFIKDLSLNITLHPSFFGPRMKQYLKTKLLEEVEGSCTGKFGYILCVLDYDNIDIQRGRILPTDGSAEFNVKYRAVVFKPFKGEVVDGTVVSCSQHGFEVQVGPMKVFVTKHLMPQDLTFNAGSNPPSYQSSEDVITIKSRIRVKIEGCISQVSCIHAIGSIKEDYLGAI [S156C] | -0.00443 | -0.0047
MFFIKDLSLNITLHPSFFGPRMKQYLKTKLLEEVEGSCTGKFGYILCVLDYDNIDIQRGRILPTDGSAEFNVKYRAVVFKPFKGEVVDGTVVSCSQHGFEVQVGPMKVFVTKHLMPQDLTFNAGSNPPSYQSSEDVITIKSRIRVKIEGCISQVNSIHAIGSIKEDYLGAI [S155N] | -0.256 | -0.708
MFFIKDLSLNITLHPSFFGPRMKQYLKTKLLEEVEGSCTGKFGYILCVLDYDNIDIQRGRILPTDGSAEFNVKYRAVVFKPFKGEVVDGTVVSCSQHGFEVQVGPMKVFVTKHLMPQDLTFNAGSNPPSYQSSEDVITIKSRIRVKIEGCISQVKSIHAIGSIKEDYLGAI [S155K] | -0.825 | -0.504
MFFIKDLSLNITLHPSFFGPRMKQYLKTKLLEEVEGSCTGKFGYILCVLDYDNIDIQRGRILPTDGSAEFNVKYRAVVFKPFKGEVVDGTVVSCSQHGFEVQVGPMKVFVTKHLMPQDLTFNAGSNPPSYQSSEDVITIKSRIRVKIEGCISQVWSIHAIGSIKEDYLGAI [S155W] | -0.499 | -0.211
MFFIKDLSLNITLHPSFFGPRMKQYLKTKLLEEVEGSCTGKFGYILCVLDYDNIDIQRGRILPTDGSAEFNVKYRAVVFKPFKGEVVDGTVVSCSQHGFEVQVGPMKVFVTKHLMPQDLTFNAGSNPPSYQSSEDVITIKSRIRVKIEGCISQVTSIHAIGSIKEDYLGAI [S155T] | 0.355 | 0.52
MFFIKDLSLNITLHPSFFGPRMKQYLKTKLLEEVEGSCTGKFGYILCVLDYDNIDIQRGRILPTDGSAEFNVKYRAVVFKPFKGEVVDGTVVSCSQHGFEVQVGPMKVFVTKHLMPQDLTFNAGSNPPSYQSSEDVITIKSRIRVKIEGCISQVISIHAIGSIKEDYLGAI [S155I] | 0.0328 | 0.0476
MFFIKDLSLNITLHPSFFGPRMKQYLKTKLLEEVEGSCTGKFGYILCVLDYDNIDIQRGRILPTDGSAEFNVKYRAVVFKPFKGEVVDGTVVSCSQHGFEVQVGPMKVFVTKHLMPQDLTFNAGSNPPSYQSSEDVITIKSRIRVKIEGCISQVRSIHAIGSIKEDYLGAI [S155R] | -5.39e-05 | -0.000304
MFFIKDLSLNITLHPSFFGPRMKQYLKTKLLEEVEGSCTGKFGYILCVLDYDNIDIQRGRILPTDGSAEFNVKYRAVVFKPFKGEVVDGTVVSCSQHGFEVQVGPMKVFVTKHLMPQDLTFNAGSNPPSYQSSEDVITIKSRIRVKIEGCISQVGSIHAIGSIKEDYLGAI [S155G] | -0.369 | -1.19
MFFIKDLSLNITLHPSFFGPRMKQYLKTKLLEEVEGSCTGKFGYILCVLDYDNIDIQRGRILPTDGSAEFNVKYRAVVFKPFKGEVVDGTVVSCSQHGFEVQVGPMKVFVTKHLMPQDLTFNAGSNPPSYQSSEDVITIKSRIRVKIEGCISQVYSIHAIGSIKEDYLGAI [S155Y] | 0.195 | 0.106
MFFIKDLSLNITLHPSFFGPRMKQYLKTKLLEEVEGSCTGKFGYILCVLDYDNIDIQRGRILPTDGSAEFNVKYRAVVFKPFKGEVVDGTVVSCSQHGFEVQVGPMKVFVTKHLMPQDLTFNAGSNPPSYQSSEDVITIKSRIRVKIEGCISQVVSIHAIGSIKEDYLGAI [S155V] | -0.702 | -0.478
MFFIKDLSLNITLHPSFFGPRMKQYLKTKLLEEVEGSCTGKFGYILCVLDYDNIDIQRGRILPTDGSAEFNVKYRAVVFKPFKGEVVDGTVVSCSQHGFEVQVGPMKVFVTKHLMPQDLTFNAGSNPPSYQSSEDVITIKSRIRVKIEGCISQVESIHAIGSIKEDYLGAI [S155E] | 0.244 | 0.145

2 successive entries out of the list so far:
Variant | log2 fold change of mutant abundance [1] | NOISeq theta enrichment statistic [2]
MFFIKDLSLNITLHPSFFGPRMKQYLKTKLLEEVEGSCTGKFGYILCVLDYDNIDIQRGRILPTDGSAEFNVKYRAVVFKPFKGEVVDGTVVSCSQHGFEVQVGPMKVFVTKHLMPQDLTFNAGSNPPSYQSSEDVITIKSRIRVKIEGCISQVSAIHAIGSIKEDYLGAI [S156A] | 0.135 | 0.206
MFFIKDLSLNITLHPSFFGPRMKQYLKTKLLEEVEGSCTGKFGYILCVLDYDNIDIQRGRILPTDGSAEFNVKYRAVVFKPFKGEVVDGTVVSCSQHGFEVQVGPMKVFVTKHLMPQDLTFNAGSNPPSYQSSEDVITIKSRIRVKIEGCISQVSTIHAIGSIKEDYLGAI [S156T] | -0.0835 | -0.32
